Assay results: article PMC4288178, “CRISPR RNA binding and DNA target recognition by purified Cascade complexes from Escherichia coli”
No constants are given. Whether binding was seen depends on the method and setting. Some entries that bind do so weakly or less than the wild type.

T1: Cse1 (CasA) (E. coli) (UniProt Q46901)
T1 sequence: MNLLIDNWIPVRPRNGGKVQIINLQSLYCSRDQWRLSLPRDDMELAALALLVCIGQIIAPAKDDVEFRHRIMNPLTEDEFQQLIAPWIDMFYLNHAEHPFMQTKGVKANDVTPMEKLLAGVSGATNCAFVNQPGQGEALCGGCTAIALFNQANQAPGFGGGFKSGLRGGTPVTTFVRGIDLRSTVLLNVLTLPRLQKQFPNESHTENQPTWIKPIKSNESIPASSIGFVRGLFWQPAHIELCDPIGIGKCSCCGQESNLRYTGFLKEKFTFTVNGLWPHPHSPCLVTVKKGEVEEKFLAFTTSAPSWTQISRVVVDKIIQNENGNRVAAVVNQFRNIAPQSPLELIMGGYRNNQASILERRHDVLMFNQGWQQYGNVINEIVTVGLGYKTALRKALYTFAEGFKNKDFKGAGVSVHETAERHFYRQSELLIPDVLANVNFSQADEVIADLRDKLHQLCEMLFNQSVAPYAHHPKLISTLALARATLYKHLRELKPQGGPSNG

B1: Cas6e (CasE) (enzyme, UniProt Q46897 1-199)
chain: MYLSKVIIARAWSRDLYQLHQGLWHLFPNRPDAARDFLFHVEKRNTPEGCHVLLQSAQMPVSTAVATVIKTKQVEFQLQVGVPLYFRLRANPIKTILDNQKRLDSKGNIKRCRVPLIKEAEQIAWLQRKLGNAARVEDVHPISERPQYFSGDGKSGKIQTVCFEGVLTINDAPALIDLVQQGIGPAKSMGCGLLSLAPL
B2: Cas7 (CasC) (protein, UniProt Q46899 1-363)
chain: MSNFINIHVLISHSPSCLNRDDMNMQKDAIFGGKRRVRISSQSLKRAMRKSGYYAQNIGESSLRTIHLAQLRDVLRQKLGERFDQKIIDKTLALLSGKSVDEAEKISADAVTPWVVGEIAWFCEQVAKAEADNLDDKKLLKVLKEDIAAIRVNLQQGVDIALSGRMATSGMMTELGKVDGAMSIAHAITTHQVDSDIDWFTAVDDLQEQGSAHLGTQEFSSGVFYRYANINLAQLQENLGGASREQALEIATHVVHMLATEVPGAKQRTYAAFNPADMVMVNFSDMPLSMANAFEKAVKAKDGFLQPSIQAFNQYWDRVANGYGLNGAAAQFSLSDVDPITAQVKQMPTLEQLKSWVRNNGEA
B3: Cse2 (CasB) (protein, UniProt P76632 1-160)
chain: MADEIDAMALYRAWQQLDNGSCAQIRRVSEPDELRDIPAFYRLVQPFGWENPRHQQALLRMVFCLSAGKNVIRHQDKKSEQTTGISLGRALANSGRINERRIFQLIRADRTADMVQLRRLLTHAEPVLDWPLMARMLTWWGKRERQQLLEDFVLTTNKNA
B4: Cas5 (CasD) (protein, UniProt Q46898 1-224)
chain: MRSYLILRLAGPMQAWGQPTFEGTRPTGRFPTRSGLLGLLGACLGIQRDDTSSLQALSESVQFAVRCDELILDDRRVSVTGLRDYHTVLGAREDYRGLKSHETIQTWREYLCDASFTVALWLTPHATMVISELEKAVLKPRYTPYLGRRSCPLTHPLFLGTCQASDPQKALLNYEPVGGDIYSEESVTGHHLKFTARDEPMITLPRQFASREWYVIKGGMDVSQ

The binders below were run against T1, Cse1 (CasA) (E. coli) (assay: SEC; Cascade+: nickel-column eluate on Superdex 200 HiLoad 16/60, 20 mM HEPES-K pH 7.5, 150 mM NaCl; major ~400 kDa peak read by SDS-PAGE and LC-MS in solution).

binding, binds:
B1
B2
B3
B4
